From the supplement of paper PMC7125110
± gives the standard error. The uncertainty is large for many entries.

B1: glmS ribozyme (parent)
chain: AUAAAAGCGCCAGAACUACAGAAAUGUAGUUGACGAGGAGGAGGUUUAUCGAAUUUUCGGCGGAUGCCUCCAAA

Variants of: B1
Test: self-cleavage kobs at 2500 uM GlcN6P; higher = faster cleavage; RNA array
Conditions: with glucosamine-6-phosphate
How it was run: (§1)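 Glucosamine-6-phosphate, from 40 μM to 10 mM in HEPES/KCl/Mg(OAc)2 buffer, was flowed over sequenced MiSeq chips carrying barcoded ribozyme variants transcribed in situ by E. coli RNA polymerase. A hybridised Cy3 probe tracked the variants at 37 °C as tiles were imaged over ~14 h. kobs, kcat and KM were obtained by fitting normalised per-tile medians to exponential decays and then applying weighted Michaelis–Menten fits across concentrations.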

Variant	self-cleavage kobs at 2500 uM GlcN6P
A53G U57A C70A	3.49e-05 ± 2.2e-05 s⁻¹
A53U C58G C68U	2.57e-05 ± 1.5e-05 s⁻¹
A53U U57C C68A	2.24e-05 ± 1.7e-05 s⁻¹
U54G G60C C68G	4.5e-05 ± 2.4e-05 s⁻¹
U55C U69A	3.47e-05 ± 2.3e-05 s⁻¹
U55G C68G U69C	4.39e-05 ± 2.5e-05 s⁻¹
U56C U57G C58A	2.91e-05 ± 2.6e-05 s⁻¹
U57C C58G C70U	4.21e-05 ± 2.6e-05 s⁻¹
U57G C68A	2.27e-05 ± 2.1e-05 s⁻¹
C58A C61G C68U	3.6e-05 ± 2.6e-05 s⁻¹
C58A U69G	3.81e-05 ± 3e-05 s⁻¹
G59U C61A C67G	2.3e-05 ± 2.3e-05 s⁻¹
G60A C70G	2.86e-05 ± 1.8e-05 s⁻¹
G60A C71U	2.07e-05 ± 1.1e-05 s⁻¹
C61A C67G	2.04e-05 ± 1.5e-05 s⁻¹
C61A C68U C71G	7.58e-05 ± 4.6e-05 s⁻¹
G62A G63C C70A C71U	2.39e-05 ± 1.7e-05 s⁻¹
A64C C70A	2.93e-05 ± 2.7e-05 s⁻¹
A64U C68A C71G	3.3e-05 ± 3e-05 s⁻¹
G66C C67U	1.77e-05 ± 1.1e-05 s⁻¹

Variants of: B1
Test: self-cleavage kobs at 10000 uM GlcN6P; higher = faster cleavage; RNA array
Conditions: with glucosamine-6-phosphate
How it was run: as §1

Variant	self-cleavage kobs at 10000 uM GlcN6P
U55C U69A	1.47e-05 ± 1e-05 s⁻¹
G60A C71U	1.86e-05 ± 1.2e-05 s⁻¹
A1U	0.0729 ± 0.056 s⁻¹
A6C C50G C61U	4.16e-05 ± 2.4e-05 s⁻¹
A6C U45G C70U	3.37e-05 ± 2e-05 s⁻¹
A6G C8A C68G	2.44e-05 ± 1.9e-05 s⁻¹
A6G C50G A53G C58U	3.44e-05 ± 2.1e-05 s⁻¹
A6G U54A C67G	2.97e-05 ± 2.4e-05 s⁻¹
G7A A15G	1.74e-05 ± 1e-05 s⁻¹
G7A C58A C67G	2.61e-05 ± 2.2e-05 s⁻¹
G7U A12G A33G U69A	3e-05 ± 2.2e-05 s⁻¹
G7U C58A C67G C70U	2.84e-05 ± 2.4e-05 s⁻¹
G7U G9U C11G U31A C50A G51A C71G	3.47e-05 ± 2.2e-05 s⁻¹
G7U G59U C68A	3.4e-05 ± 2.4e-05 s⁻¹
C8A G29U C50U G51U C68G	3.85e-05 ± 2e-05 s⁻¹
C8A G37U A52G C70G	3.52e-05 ± 2.4e-05 s⁻¹
G9A U54G	2.78e-05 ± 1.4e-05 s⁻¹
G9C C16U G32A C50G	3.19e-05 ± 2.4e-05 s⁻¹
C10A A39G C70G	3.13e-05 ± 2.1e-05 s⁻¹
C10A G59U C68A	3.5e-05 ± 1.8e-05 s⁻¹
C10G G66U C68G C71A	2.58e-05 ± 1.9e-05 s⁻¹
C10U U56A	2.21e-05 ± 1.2e-05 s⁻¹
C11A A14G A15G C70A	4.51e-05 ± 2.3e-05 s⁻¹

Variant	self-cleavage kobs at 10000 uM GlcN6P
C11A C50G G59U C61G G62C	4.26e-05 ± 2.3e-05 s⁻¹
C11A C50G U56G G59U G60A	3.52e-05 ± 2.3e-05 s⁻¹
C11A G13C A53U C58G A64U U69A	4.36e-05 ± 2.4e-05 s⁻¹
C11G U31G	1.48e-05 ± 1.5e-05 s⁻¹
C11U A52U U56A U57G U65G C67U U69G	2.78e-05 ± 1.8e-05 s⁻¹
C11U U65G C68G	2e-05 ± 2e-05 s⁻¹
A12G G13C	2.18e-05 ± 1.1e-05 s⁻¹
A12G U47G G66U C68G	2.18e-05 ± 1.9e-05 s⁻¹
A12U U30C	0.0347 ± 0.018 s⁻¹
G13A C70G	1.17e-05 ± 1.1e-05 s⁻¹
G13C C61A C67G C68G	2.98e-05 ± 1.5e-05 s⁻¹
G13U A52U	1.46e-05 ± 8.1e-06 s⁻¹
G13U G29U U31C	1.6e-05 ± 1.4e-05 s⁻¹
A14C U65A C67G U69A	2.04e-05 ± 1.8e-05 s⁻¹
A14G C50A C68U	2.2e-05 ± 2e-05 s⁻¹
A14G U47A C50A	2.16e-05 ± 1.2e-05 s⁻¹
A15C A53U C70A	2.95e-05 ± 2.1e-05 s⁻¹
A15C U69A	3.67e-05 ± 2.1e-05 s⁻¹
A15G A36C C68G	3.23e-05 ± 2.4e-05 s⁻¹
A15G U49A	1.19e-05 ± 1.1e-05 s⁻¹
C16A G29C C58U	1.86e-05 ± 1.1e-05 s⁻¹
C16A U54G C58U	3.4e-05 ± 1.9e-05 s⁻¹
C16G A42U	2.11e-05 ± 1.1e-05 s⁻¹

Variant	self-cleavage kobs at 10000 uM GlcN6P
C16U A48U C67G	2.58e-05 ± 2.2e-05 s⁻¹
A20C	0.0613 ± 0.035 s⁻¹
G26U U49A	2.46e-05 ± 1.7e-05 s⁻¹
G29A A39U G43U	2.45e-05 ± 2.2e-05 s⁻¹
G29U U31G C50G	2.82e-05 ± 2.1e-05 s⁻¹
U30A A33U C58G U69C	4.27e-05 ± 2.1e-05 s⁻¹
U30A A42U U55C	1.53e-05 ± 1.2e-05 s⁻¹
U30A U46G C68G	3.35e-05 ± 2.2e-05 s⁻¹
U30C A53U C68G	2.36e-05 ± 1.5e-05 s⁻¹
G32A U54A C68A	2.76e-05 ± 2e-05 s⁻¹
G32C C70G C71G	2.82e-05 ± 2.5e-05 s⁻¹
G32U C68G	1.38e-05 ± 1.1e-05 s⁻¹
G32U U56A C61G C67A	2.56e-05 ± 1.7e-05 s⁻¹
A33U G66A C68U	2.49e-05 ± 1.5e-05 s⁻¹
A33U G66U	1.03e-05 ± 9.8e-06 s⁻¹
A36G C71U	1.53e-05 ± 1.1e-05 s⁻¹
A36G U54A	2.03e-05 ± 2e-05 s⁻¹
G37A C50G C70G	2.06e-05 ± 1.9e-05 s⁻¹
G37A G43U U55G	3.35e-05 ± 1.7e-05 s⁻¹
G37C G66A	2.61e-05 ± 2.1e-05 s⁻¹
G38U C67A	1.54e-05 ± 1.5e-05 s⁻¹
A39C U56A U57A	1.91e-05 ± 1.5e-05 s⁻¹
A39G C50G C58A	2.85e-05 ± 1.9e-05 s⁻¹

Six entries picked at random from the list so far:
Variant	self-cleavage kobs at 10000 uM GlcN6P
U30A A33U C58G U69C	4.27e-05 ± 2.1e-05 s⁻¹
G32U U56A C61G C67A	2.56e-05 ± 1.7e-05 s⁻¹
A39C U56A U57A	1.91e-05 ± 1.5e-05 s⁻¹
G29U U31G C50G	2.82e-05 ± 2.1e-05 s⁻¹
A33U G66U	1.03e-05 ± 9.8e-06 s⁻¹
A33U G66A C68U	2.49e-05 ± 1.5e-05 s⁻¹

Additional records

Variant	self-cleavage kobs at 10000 uM GlcN6P
G40C U57A	2.58e-05 ± 1.4e-05 s⁻¹
A42G G44U C67G	0.0401 ± 0.02 s⁻¹
A42G U69C	0.0629 ± 0.044 s⁻¹
G43A U65G	2.14e-05 ± 1.8e-05 s⁻¹
G43C C68G	0.0695 ± 0.037 s⁻¹
G43U A53C	1.28e-05 ± 1e-05 s⁻¹
G43U C70U	1.87e-05 ± 9.7e-06 s⁻¹
G43U C71U	1.16e-05 ± 9.1e-06 s⁻¹
G44A C67G C68G	2.93e-05 ± 1.8e-05 s⁻¹
G44C U56C	1.87e-05 ± 1.2e-05 s⁻¹
G44U A53G C67G	0.149 ± 0.12 s⁻¹
U45C A53C C70G	1.61e-05 ± 1.5e-05 s⁻¹
U45C U65A	3.14e-05 ± 1.6e-05 s⁻¹
U45G A48G	2.39e-05 ± 1.5e-05 s⁻¹
U45G A48U G66U	3.48e-05 ± 2.1e-05 s⁻¹
U46A C68G	2.13e-05 ± 1.1e-05 s⁻¹
U46G G59C U69A C70G	3.45e-05 ± 2e-05 s⁻¹
U47C C50A	2.57e-05 ± 2e-05 s⁻¹
U47C G66U	2.12e-05 ± 1.4e-05 s⁻¹
U47G C50A C67U	2.15e-05 ± 1.8e-05 s⁻¹
U47G C58A G59A C70A	3.07e-05 ± 1.8e-05 s⁻¹
U47G G59C C70G	2.55e-05 ± 1.8e-05 s⁻¹
A48G U69A	1.91e-05 ± 1.7e-05 s⁻¹

Variant	self-cleavage kobs at 10000 uM GlcN6P
U49A A64G	1.69e-05 ± 1.3e-05 s⁻¹
U49G A52G C67G	2.85e-05 ± 2.6e-05 s⁻¹
C50A C58U U69C C70A	2.01e-05 ± 1.5e-05 s⁻¹
C50G C71A	0.000603 ± 0.00033 s⁻¹
C50G G51A U69G	2.1e-05 ± 1.3e-05 s⁻¹
A52G C67U C71G	2.7e-05 ± 1.7e-05 s⁻¹
A52G U65G C70G	3.14e-05 ± 2e-05 s⁻¹
A53G C70A	0.00336 ± 0.0018 s⁻¹
A53U C58G C67U	2.13e-05 ± 2e-05 s⁻¹
U54A C67U C68A	2.7e-05 ± 1.8e-05 s⁻¹
U55A C68A	0.000872 ± 0.00052 s⁻¹
U55A U57C C58U	1.78e-05 ± 1.6e-05 s⁻¹
U55C A64C	1.54e-05 ± 8.8e-06 s⁻¹
U56G U69G C71U	2.67e-05 ± 1.9e-05 s⁻¹
C58A C68U U69G	2.32e-05 ± 2e-05 s⁻¹
C58G C67U	2.3e-05 ± 1.7e-05 s⁻¹
C58U C67G C70U	2.24e-05 ± 1.5e-05 s⁻¹
C58U U69G	1.43e-05 ± 1.3e-05 s⁻¹
C61U C71U	1.98e-05 ± 1.2e-05 s⁻¹
C68A U69A	2.6e-05 ± 1.9e-05 s⁻¹
C68U C71G	1.07e-05 ± 8.7e-06 s⁻¹
